Source: the supplement of paper PMC9254222
Structures can show the parent of a compound that is named as a salt. In all, about 1,100 compounds were measured (“Renilla luciferase signal (cell health) relative to plate median”: median about 0.97, highest 2% from about 1.6 on). The entries are a selection whose mix differs from that of the whole data set.

System: HEK293T (UBE3A T485A transfected, BAR Wnt reporter)
Test: Renilla luciferase signal (cell health) relative to plate median (fold (linear ratio)); higher = higher Renilla signal
Settings: 24 h
Summary of the method: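 HEK293T cells carrying a transfected BAR firefly luciferase Wnt reporter, TK-Renilla and an expression plasmid were exposed to chemicals at 0.01–100 uM for 24 h, with dosing four hours after transfection. Readout used Dual-Glo luciferase. The firefly/Renilla ratio defined Wnt activity and raw Renilla defined cell health, each median-centred per plate. Figures are means of four biological replicates.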

| Compound | Renilla luciferase signal (concentration: 0.01 uM) | Renilla luciferase signal (concentration: 0.1 uM) | Renilla luciferase signal (concentration: 1 uM) | Renilla luciferase signal (concentration: 10 uM) | Renilla luciferase signal (concentration: 100 uM) |
| --- | --- | --- | --- | --- | --- |
| CCC(C)C1OC2(C=CC1C)CC1CC(CC=C(C)C(OC3CC(OC)C(OC4CC(OC)C(O)C(C)O4)C(C)O3)C(C)C=CC=C3COC4C(O)C(C)=CC(C(=O)O1)C34O)O2 (stereo not drawn) [Abamectin] | 0.929 | 1.08 | 0.956 | 0.403 | 0.0306 |
| O=[N+]([O-])c1c(Cl)c(Cl)c(Cl)c(Cl)c1Cl [Pentachloronitrobenzene] | 1 | 1.06 | 0.927 | 0.981 | 1.34 |
| CC1(C)C(C=C(Cl)Cl)C1C(=O)OC(C#N)c1cccc(Oc2ccccc2)c1 (stereo not drawn) [Cypermethrin] | 1.25 | 1.16 | 1.03 | 1.16 | 0.901 |
| Cc1cc(-c2ccc(N)c(C)c2)ccc1N [3,3'-Dimethylbenzidine] |  | 0.965 | 1 | 0.918 | 0.872 |
| c1ccc2c(c1)Nc1ccccc1S2 [Phenothiazine] |  | 0.84 | 0.859 | 0.971 | 0.425 |
| CC(C1CC1)C(O)(Cn1cncn1)c1ccc(Cl)cc1 (stereo not drawn) [Cyproconazole] | 1.42 | 1.03 | 1.06 | 1.02 | 0.867 |
| CC(C)COC(=O)c1ccccc1C(=O)OCC(C)C [Diisobutyl phthalate] |  | 0.825 | 0.827 | 0.867 | 1.01 |
| CC(C)(C)OOC(=O)c1ccccc1 [tert-Butyl perbenzoate] |  | 1.03 | 1 | 0.978 | 1.1 |
| CC(C)(C)c1ccc(CCOc2ncnc3ccccc23)cc1 [Fenazaquin] | 0.978 | 1.05 | 0.95 | 0.255 | 0.141 |
| O=C(N[C@H]1CN2CCC1CC2)c1cc2ccoc2cn1 |  | 1.07 | 1.02 | 0.999 | 0.947 |
| CCOP(=S)(OCC)SCSC(C)(C)C [Terbufos] |  | 0.87 | 0.914 | 0.933 | 1.23 |
| Oc1ccccc1-c1ccccc1 [2-Phenylphenol] | 1.08 | 1.08 | 0.948 | 1.01 | 0.987 |
| [Na+].[O-][n+]1ccccc1[S-] [Sodium (2-pyridylthio)-N-oxide] |  | 1.06 | 0.913 | 1.01 | 0.0174 |
| Nc1ccc2ccccc2c1 [2-Naphthylamine] |  | 1.07 | 0.945 | 0.947 | 0.792 |
| Clc1ccc(C(c2ccc(Cl)cc2)C(Cl)(Cl)Cl)cc1 |  | 0.841 | 0.863 | 0.92 | 0.995 |
| Cc1nn(-c2cc(NS(C)(=O)=O)c(Cl)cc2Cl)c(=O)n1C(F)F [Sulfentrazone] | 1.01 | 1.05 | 0.889 | 1.04 | 1.21 |
| Oc1ccc(C(c2ccc(O)cc2)(C(F)(F)F)C(F)(F)F)cc1 [Bisphenol AF] |  | 1.13 | 0.983 | 0.958 | 0.176 |
| CCCCCCCCn1sccc1=O [Octhilinone] |  | 0.906 | 0.835 | 0.471 | 0.0285 |
| Cc1cnc(C2=NC(=O)C(C)(C(C)C)N2)c(C(=O)O)c1 (stereo not drawn) [Imazapic] | 1.11 | 1.17 | 1.18 | 1.14 | 1.72 |
| c1ccc(N=Nc2ccccc2)cc1 [Azobenzene] |  | 0.917 | 0.96 | 0.998 | 1.29 |
| CCCSC(=O)N(CCC)CCC [Vernolate] |  | 0.745 | 0.776 | 0.829 | 1.32 |

Rewritten comma-delimited: part of the list above.
Compound,Renilla luciferase signal (concentration: 0.01 uM),Renilla luciferase signal (concentration: 0.1 uM),Renilla luciferase signal (concentration: 1 uM),Renilla luciferase signal (concentration: 10 uM),Renilla luciferase signal (concentration: 100 uM)
CC1(C)C(C=C(Cl)Cl)C1C(=O)OC(C#N)c1cccc(Oc2ccccc2)c1 (stereo not drawn) [Cypermethrin],1.25,1.16,1.03,1.16,0.901
Oc1ccc(C(c2ccc(O)cc2)(C(F)(F)F)C(F)(F)F)cc1 [Bisphenol AF],,1.13,0.983,0.958,0.176

(cont.)

| Compound | Renilla luciferase signal (concentration: 0.01 uM) | Renilla luciferase signal (concentration: 0.1 uM) | Renilla luciferase signal (concentration: 1 uM) | Renilla luciferase signal (concentration: 10 uM) | Renilla luciferase signal (concentration: 100 uM) |
| --- | --- | --- | --- | --- | --- |
| COCC(=O)N(c1c(C)cccc1C)C(C)C(=O)OC (stereo not drawn) [Metalaxyl] | 0.822 | 1.05 | 1.14 | 1.22 | 1.42 |
| COc1cc(C=O)cc2c1[C@H](COC(N)=O)[C@]1(OC(C)=O)ON2C[C@H]2[C@@H]1N2C(C)=O |  | 0.566 | 0.0435 | 0.0233 | 0.0248 |
| CCOc1cccc([C@]2(N3CCN(c4ccccc4)CC3)CC[C@@H](C)CC2)c1.CS(=O)(=O)O |  | 1.04 | 0.985 | 1.13 | 0.84 |
| Clc1ccc(Cl)cc1 [1,4-Dichlorobenzene] |  | 0.907 | 0.935 | 1.01 | 1.52 |
| CCON=C(CC)C1=C(O)CC(c2c(C)cc(C)cc2C)CC1=O (stereo not drawn) [Tralkoxydim] | 0.883 | 0.909 | 0.936 | 1.06 | 0.913 |
| N#Cc1c(Cl)c(Cl)c(Cl)c(C#N)c1Cl [Chlorothalonil] | 1.01 | 0.952 | 0.75 | 0.359 | 0.00871 |
| CC(C)N1C(=O)c2ccccc2NS1(=O)=O [Bentazone] | 0.77 | 1.07 | 1.11 | 1.34 | 0.305 |
| ClC1=C(Cl)[C@]2(Cl)[C@H]3[C@H]([C@@H]4C=C[C@H]3C4)[C@@]1(Cl)C2(Cl)Cl [Aldrin] |  | 0.922 | 0.941 | 1.02 | 1.1 |
| COC(=O)c1ccccc1C(=O)OC [Dimethyl phthalate] | 1.16 | 0.976 | 1.03 | 1.06 | 1.37 |
| CON(C)C(=O)Nc1ccc(Cl)c(Cl)c1 [Linuron] | 1.29 | 1.21 | 1.03 | 1.04 | 0.863 |
| CCC(C)Nc1c([N+](=O)[O-])cc(C(C)(C)C)cc1[N+](=O)[O-] (stereo not drawn) [Butralin] | 0.921 | 1.06 | 0.989 | 1.04 | 1.94 |
| COC(=CC(N)=O)C(C)C(C=Cc1csc(-c2csc(C(C)C=CC=CC(C)C)n2)n1)OC (stereo not drawn) [Myxothiazol] | 0.923 | 1.03 | 0.128 | 0.201 | 0.0156 |
| O=C(Nc1ccccc1)Nc1ccnc(Cl)c1 [Forchlorfenuron] | 1.2 | 1.2 | 1.05 | 0.842 | 0.0165 |
| CCC(C)(C)c1ccc(O)cc1 [4-(2-Methylbutan-2-yl)phenol] |  | 0.874 | 0.809 | 0.795 | 0.442 |
| Cl[C@H]1[C@H](Cl)[C@@H](Cl)[C@@H](Cl)[C@H](Cl)[C@H]1Cl [Lindane] | 0.922 | 0.93 | 0.973 | 0.922 | 1.17 |
| CC(COc1ccc(Oc2ccccc2)cc1)Oc1ccccn1 (stereo not drawn) [Pyriproxyfen] | 1.21 | 1.17 | 1.02 | 0.72 | 0.712 |
| ClC1=C(Cl)C2(Cl)C3C4OC4C(Cl)C3C1(Cl)C2(Cl)Cl (stereo not drawn) [Heptachlor epoxide] |  | 1.08 | 1.13 | 1.11 | 1.37 |
| O=C(O)CNCP(=O)(O)O [Glyphosate] | 0.796 | 0.874 | 0.905 | 1.07 | 2.5 |
| CON=C(C(=O)OC)c1ccccc1COc1ccccc1C [Kresoxim methyl] | 1.11 | 1.03 | 0.788 | 0.886 | 0.319 |
| ClC(Cl)c1ccccc1 [Benzal chloride] |  | 1.11 | 0.929 | 1.12 | 1.15 |
| COS(=O)(=O)[O-].Cn1c(-c2ccccc2)cc(-c2ccccc2)[n+]1C [Difenzoquat metilsulfate] | 1.41 | 1.21 | 0.979 | 0.98 | 0.0929 |

| Compound | Renilla luciferase signal (concentration: 0.01 uM) | Renilla luciferase signal (concentration: 0.1 uM) | Renilla luciferase signal (concentration: 1 uM) | Renilla luciferase signal (concentration: 10 uM) | Renilla luciferase signal (concentration: 100 uM) |
| --- | --- | --- | --- | --- | --- |
| CCC(=O)O[C@H]1CC[C@H]2[C@@H]3CCC4=CC(=O)CC[C@]4(C)[C@H]3CC[C@]12C [Testosterone propionate] |  | 0.869 | 0.772 | 0.878 | 1.11 |
| N#CCCCCC#N [Hexanedinitrile] |  | 0.974 | 0.99 | 1.02 | 0.934 |
| CC(Oc1cccc(Cl)c1)C(=O)O (stereo not drawn) [Cloprop] | 0.924 | 0.701 | 0.814 | 1.01 | 2.51 |
| CCCC1COC(Cn2cncn2)(c2ccc(Cl)cc2Cl)O1 (stereo not drawn) [Propiconazole] | 0.966 | 0.935 | 0.943 | 1.05 | 0.0347 |
| COS(=O)(=O)OC [Dimethyl sulfate] |  | 0.879 | 0.971 | 0.924 | 0.122 |
| O=S1OCC2C(CO1)C1(Cl)C(Cl)=C(Cl)C2(Cl)C1(Cl)Cl (stereo not drawn) [Endosulfan] | 1.05 | 1.05 | 1.02 | 1.13 | 1.06 |
| O=C(O)C(F)(F)C(F)(F)C(F)(F)C(F)(F)C(F)(F)C(F)(F)F [Perfluoroheptanoic acid] |  | 1.29 | 1.06 | 1.17 | 1.43 |
| CC1=C(C(=O)Nc2ccccc2)SCCO1 [Carboxin] |  |  |  |  | 2.12 |
| CCNc1nc(NC(C)C)nc(SC)n1 [Ametryn] |  |  |  |  | 1.78 |
| OC(c1ccc(Cl)cc1)(c1ccc(Cl)cc1)C(Cl)(Cl)Cl [Dicofol] | 0.727 | 0.789 | 0.945 | 0.906 | 0.881 |
| COc1cccc(C(=O)NN(C(=O)c2cc(C)cc(C)c2)C(C)(C)C)c1C [Methoxyfenozide] | 1.37 | 1.1 | 1.05 | 1.04 | 0.685 |
| OCCCl [2-Chloroethanol] |  | 1.03 | 1.11 | 1.27 | 1.29 |
| COP(=O)(OC)O/C(C)=C/C(=O)N(C)C [Dicrotophos] | 1.19 | 1.16 | 0.994 | 1.09 | 1.78 |
| Cc1nc(N(C)C)nc(OC(=O)N(C)C)c1C [Pirimicarb] | 1.09 | 1.09 | 1.1 | 1.21 | 2.4 |
| O=[N+]([O-])C(Br)(CO)CO [Bronopol] |  | 0.933 | 0.91 | 0.912 | 0.0266 |
| COP(=S)(OC)Oc1ccc(SC)c(C)c1 [Fenthion] | 1.03 | 0.956 | 0.971 | 1.07 | 1.5 |
| [Cl-].[Cl-].[Hg+2] [Mercuric chloride] |  | 0.533 | 0.402 | 0.153 | 0.0217 |
| Nc1ccc(Oc2ccc(N)cc2)cc1 [4,4'-Oxydianiline] |  | 0.892 | 0.88 | 0.918 | 0.923 |
| CCc1cccc(C)c1N(C(=O)CCl)C(C)COC (stereo not drawn) [Metolachlor] | 1.15 | 0.734 | 1.07 | 1.03 | 0.558 |
| CN(C)c1ccc(Cc2ccc(N(C)C)cc2)cc1 [4,4'-Methylenebis(N,N-dimethylaniline)] |  | 1.12 | 1.11 | 1.1 | 0.424 |
